Test [1] concerns the target PCGF5 (endogenous, mESCs) (mouse (endogenous in mESCs)) (UniProt Q3UK78). As to the kind of experiment: co-sedimentation; whole cell extracts of mESCs on a 10-30% sucrose gradient, 247,605 x g, 4 °C, 16 h; fractions resolved on SDS-PAGE and immunoblotted. Background: Immunoblotting shows a protein as a band on a membrane.
In another test the target is Flag-PCGF5 (UniProt Q3UK78). Nature of the test: co-IP; Flag co-IP from 293T cells transfected with Flag-PCGF5 or its deletion; Flag-tagged empty vector as control; Western blot.
Test [2] deals with T1, GST-RING1B C-terminal domain (amino acids 94-336) (UniProt Q9CQJ4).
T1 sequence: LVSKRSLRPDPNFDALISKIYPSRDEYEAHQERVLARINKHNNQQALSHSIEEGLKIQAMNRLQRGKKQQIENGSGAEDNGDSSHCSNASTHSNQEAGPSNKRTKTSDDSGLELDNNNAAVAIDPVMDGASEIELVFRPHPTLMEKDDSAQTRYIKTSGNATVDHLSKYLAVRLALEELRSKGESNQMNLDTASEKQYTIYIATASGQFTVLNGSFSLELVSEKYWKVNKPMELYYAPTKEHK
Nature of the test: pull-down; GST-RING1B fusion proteins on beads incubated with cell lysates of 293T cells overexpressing Flag-PCGF5; probed with anti-FLAG antibody by Western blot; only the target purified.

Protein sequences, listed by entry. Tags and fused reporters are not part of them.
UniProt Q3UK78: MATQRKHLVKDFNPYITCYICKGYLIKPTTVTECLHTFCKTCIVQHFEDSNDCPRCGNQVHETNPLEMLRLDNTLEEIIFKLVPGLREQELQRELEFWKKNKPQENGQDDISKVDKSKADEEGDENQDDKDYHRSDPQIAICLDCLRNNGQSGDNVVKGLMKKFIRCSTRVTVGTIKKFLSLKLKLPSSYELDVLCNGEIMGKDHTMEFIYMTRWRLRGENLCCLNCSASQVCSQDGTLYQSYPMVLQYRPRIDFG
UniProt Q8VDS3: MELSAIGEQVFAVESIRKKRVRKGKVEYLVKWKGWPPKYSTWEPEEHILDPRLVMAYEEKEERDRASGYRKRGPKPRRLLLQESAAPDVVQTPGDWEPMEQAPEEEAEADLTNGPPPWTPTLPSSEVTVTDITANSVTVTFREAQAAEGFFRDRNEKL
UniProt O95931: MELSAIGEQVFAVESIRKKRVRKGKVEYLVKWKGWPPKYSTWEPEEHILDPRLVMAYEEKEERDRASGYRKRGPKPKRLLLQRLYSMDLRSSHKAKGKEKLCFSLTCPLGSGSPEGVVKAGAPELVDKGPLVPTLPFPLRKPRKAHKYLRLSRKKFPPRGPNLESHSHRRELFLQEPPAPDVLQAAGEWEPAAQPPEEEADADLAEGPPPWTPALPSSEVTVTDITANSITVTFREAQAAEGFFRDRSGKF

Test [3] has as its target GST-RING1B ring finger domain (amino acids 49-95) (UniProt Q9CQJ4). Described as above.

These are yes or no findings as the source states them, for the method shown. In cells and extracts the contact can be indirect. Some results given as binding are weak or reduced against the parent protein; the word gives no strength. For some of these results: Tags and fused reporters may be left off the sequences shown.

For the molecule “CBX7 (endogenous, mESCs) (from UniProt Q8VDS3 1-158)”, in test [1], the binding result was “no binding”. As to CBX7 (from UniProt O95931 1-251), the binding entry with Flag-PCGF5 is given as “no binding”. Consider Flag-PCGF5 (from UniProt Q3UK78 1-256), for which the binding result in test [2] and in test [3] was “binds” in each case. For the molecule RING1B (from UniProt Q99496 1-336), the binding result with Flag-PCGF5 is on record as “binds”.

B1: RYBP (protein, UniProt Q8N488 1-228)
chain: MTMGDKKSPTRPKRQAKPAADEGFWDCSVCTFRNSAEAFKCSICDVRKGTSTRKPRINSQLVAQQVAQQYATPPPPKKEKKEKVEKQDKEKPEKDKEISPSVTKKNTNKKTKPKSDILKDPPSEANSIQSANATTKTSETNHTSRPRLKNVDRSTAQQLAVTVGNVTVIITDFKEKTRSSSTSSSTVTSSAGSEQQNQSSSGSESTDKGSSRSSTPKGDMSAVNDESF
On to B1, for which the binding entry with Flag-PCGF5 is listed as “binds”.

B2: RYBP (endogenous, mESCs) (protein, UniProt Q8CCI5 1-228)
chain: MTMGDKKSPTRPKRQAKPAADEGFWDCSVCTFRNSAEAFKCSICDVRKGTSTRKPRINSQLVAQQVAQQYATPPPPKKEKKEKVEKPDKEKPEKDKDISPSVTKKNTNKKTKPKSDILKDPPSEANSIQSANATTKTSETNHTSRPRLKNVDRSTAQQLAVTVGNVTVIITDFKEKTRSSSTSSSTVTSSAGSEQQNQSSSGSESTDKGSSRSSTPKGDMSAVNDESF
On to B2, for which the binding result in test [1] was “binds”.

The values above are taken from publication PMC5954019.
